The values below come from PubChem BioAssay AID256 (DTP/NCI, 2004).

The subject of this assay is CD2F1 mice, L1210 leukemia ip, survival T/C. Description: NCI In Vivo Anticancer Drug Screen. Data for tumor model L1210 Leukemia (intraperitoneal) in CD2F1 (CDF1) mice. The following applies: higher T/C = longer survival. In a few lines: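 Compound-dosed mice with transplantable tumor versus matched vehicle controls; endpoint ratio T/C reported.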
Where [1] appears, read: T/C endpoint: mean survival time, dose: 200.0 mg/kg/injection, schedule: Q01DX009 (ip), vehicle: saline with Tween-80.
Setting [2] is: T/C endpoint: mean survival time, dose: 400.0 mg/kg/injection, schedule: Q01DX009 (ip), vehicle: saline with Tween-80.
Setting [3] is: T/C endpoint: mean survival time, dose: 400.0 mg/kg/injection, schedule: Q04DX003 (ip), vehicle: saline.
Setting [4] is: T/C endpoint: mean survival time, dose: 75.0 mg/kg/injection, schedule: Q01DX001 (ip), vehicle: saline.
The mark [5] stands for this setting: T/C endpoint: mean survival time, dose: 100.0 mg/kg/injection, schedule: Q01DX009 (ip), vehicle: saline with Tween-80.
[6] abbreviates: T/C endpoint: mean survival time, dose: 150.0 mg/kg/injection, schedule: Q01DX001 (ip), vehicle: saline.
[7] abbreviates: T/C endpoint: mean survival time, dose: 300.0 mg/kg/injection, schedule: Q01DX001 (ip), vehicle: saline.
Setting [8] is: T/C endpoint: mean survival time, dose: 100.0 mg/kg/injection, schedule: Q01DX001 (ip), vehicle: saline with Tween-80.
Setting [9] is: T/C endpoint: mean survival time, dose: 200.0 mg/kg/injection, schedule: Q01DX001 (ip), vehicle: saline with Tween-80.
Setting [10] is: T/C endpoint: median survival time, dose: 400.0 mg/kg/injection, schedule: Q01DX009 (ip), vehicle: saline.
Setting [11] is: T/C endpoint: mean survival time, dose: 400.0 mg/kg/injection, schedule: Q04DX003 (ip), vehicle: saline with Tween-80.

The list is a part of this screen's results and no random one: it is rich in T/C values a quarter to a half above the control, in often repeated tests (any T/C) and in doses without a T/C. Further doses and runs are listed elsewhere. T/C is the treated group as % of the vehicle group. Some entries give survivors of the animals treated and no T/C: the source holds a T/C of zero for them, seemingly a mark for toxic or unscored doses. Some doses without a T/C left all or most animals alive at the check, yet need not have been tolerated: the source hardly ever lists a survival T/C far under the control, and the zero likely stands for such cases as well. Survivors were counted at the toxicity check, usually on the fifth day, unless a day is given; later deaths do not show. Schedules are NCI's codes, read here as Q, the interval in days (D) or hours (H), X, the number of doses. Some doses were run more than once; the results are listed from low to high. Where survival is the endpoint, the PubChem record calls one and a half times the control and up active, and a quarter to a half above the control has no call in these data; cut-offs in other NCI protocols can differ. Some T/C values carry the count of animals alive at the toxicity check (mostly the fifth day); without a count, all were alive then. Counts like (3×) say how often a value occurs here.

For the compound `Clc1ncc2cnccn12`, the survivor count by setting is: under setting [1], 2 of 6; under setting [2], 0 of 6.

For `CCNc1nc(NC(C)C)nc(SC)n1`, under setting [3], the survivor count is given as 2 of 6.

Regarding `CC(=O)[O][Hg][CH]1CCCCC1O` (configuration not stated), the survivor count by setting is: (T/C endpoint: mean survival time, dose: 12.5 mg/kg/injection, schedule: Q01DX009 (ip), vehicle: saline + alcohol) 0 of 6; under setting [4], 0 of 6; under setting [5], 0 of 6; under setting [6], 0 of 6; under setting [1], 0 of 6; under setting [7], 0 of 6. For the same compound, the survivor count under setting [2] was 0 of 6.

For the compound `O=c1ccc2nc3ccccc3sc-2c1`, the survivor count under setting [5] is on record as 6 of 6 and the survivor count under setting [1] was 2 of 6.

As to `CS(=O)(=O)OCC(=O)NCCCCNC(=O)COS(C)(=O)=O`, the survivor count (T/C endpoint: mean survival time, dose: 400.0 mg/kg/injection, schedule: Q01DX001 (ip), vehicle: saline) is 1 of 6.

On to `CN1CC(C(=O)NC(C)(C)C)CC(c2ccccc2)C1` (configuration not stated), for which the survivor count is, setting by setting: under setting [8], 1 of 6; under setting [9], 0 of 6; (T/C endpoint: mean survival time, dose: 400.0 mg/kg/injection, schedule: Q01DX001 (ip), vehicle: saline with Tween-80) 0 of 6.

Consider `O=N[O-].[Co].[NH2-].[NH2-].[NH2-].[NH2-].[NH2-]`, for which, for the setting “T/C endpoint: mean survival time, dose: 100.0 mg/kg/injection, schedule: Q01DX003 (ip), vehicle: saline”, the survivor count is 2 of 6.

As for `O=C1C=C[C@H](O)[C@@]2(CO)O[C@@H]12`, the T/C is 128 % of control (T/C endpoint: median survival time, dose: 5.0 mg/kg/injection, schedule: Q01DX009 (ip), vehicle: saline with Tween-80) and 126 % of control (T/C endpoint: median survival time, dose: 10.0 mg/kg/injection, schedule: Q01DX009 (ip), vehicle: saline with Tween-80). Moreover, the survivor count (T/C endpoint: median survival time, dose: 20.0 mg/kg/injection, schedule: Q01DX009 (ip), vehicle: saline with Tween-80) was 3 of 6.

Turning to `Nc1c(Br)cc2c(c1Br)Cc1cc(Cl)ccc1-2`, the survivor count under setting [1] is recorded as 0 of 6 and the survivor count under setting [2] is listed as 1 of 6.

As for `Cn1c(-c2ccc(/C=N\N3CCN(/N=C/c4ccc(-c5c[n+]6ccsc6n5C)cc4)CC3)cc2)c[n+]2ccsc12`, the survivor count is given as 1 of 6 (T/C endpoint: median survival time, dose: 6.0 mg/kg/injection, schedule: Q01DX005 (ip), vehicle: saline with Tween-80) and 0 of 6 (T/C endpoint: median survival time, dose: 12.0 mg/kg/injection, schedule: Q01DX005 (ip), vehicle: saline with Tween-80).

With `CC(=O)C(CN(C)C)C(C)=O`, the survivor count (T/C endpoint: mean survival time, dose: 300.0 mg/kg/injection, schedule: Q01DX001 (ip), vehicle: other) was 2 of 6.

Regarding `CC(C)CCn1cnc2c(=S)nc(N)[nH]c21`, the T/C by setting is: (T/C endpoint: mean survival time, dose: 50.0 mg/kg/injection, schedule: Q01DX001 (ip), vehicle: saline with Tween-80) 146 % of control; under setting [8], 125 % of control.

Take `CCOC(=O)C1(c2ccccc2)C(=O)Oc2ccccc21` (configuration not stated): the survivor count under setting [1] is given as 6 of 6.

On to `[N-]=[N+]=CC(=O)CCC(=O)C=[N+]=[N-]`, for which the T/C (T/C endpoint: mean survival time, dose: 6.25 mg/kg/injection, schedule: Q01DX009 (ip), vehicle: other) was 141 % of control. In addition, the survivor count (T/C endpoint: mean survival time, dose: 50.0 mg/kg/injection, schedule: Q01DX009 (ip), vehicle: other) is recorded as 6 of 6.

For `O=C1Nc2ccccc2/C1=N/N=C/c1cc(Cl)cc(Cl)c1O`, the survivor count under setting [9] was 6 of 6.

With `CN(CCN(C)C(=O)CCOS(C)(=O)=O)C(=O)CCOS(C)(=O)=O`, the T/C is 121 and 135 % of control (2×) (T/C endpoint: median survival time, dose: 25.0 mg/kg/injection, schedule: Q01DX009 (ip), vehicle: saline); 150, 170, 174 % of control (T/C endpoint: median survival time, dose: 50.0 mg/kg/injection, schedule: Q01DX009 (ip), vehicle: saline); 210, 250, 256 % of control (T/C endpoint: median survival time, dose: 100.0 mg/kg/injection, schedule: Q01DX009 (ip), vehicle: saline); 102, 150, 171 % of control (T/C endpoint: median survival time, dose: 200.0 mg/kg/injection, schedule: Q01DX009 (ip), vehicle: saline); 102 % of control under setting [10]. The survivor count under setting [10] was 9 of 10 and 10 of 10.

In the case of `NC(=S)N/N=C1/CCN2CCCc3cccc1c32`, the survivor count (T/C endpoint: mean survival time, dose: 75.0 mg/kg/injection, schedule: Q01DX001 (ip), vehicle: saline with Tween-80) is 0 of 6; the survivor count (T/C endpoint: mean survival time, dose: 150.0 mg/kg/injection, schedule: Q01DX001 (ip), vehicle: saline with Tween-80) is listed as 0 of 6; the survivor count (T/C endpoint: mean survival time, dose: 300.0 mg/kg/injection, schedule: Q01DX001 (ip), vehicle: saline with Tween-80) was 0 of 6.

Turning to `NC(=O)C[n+]1cccc(C(=O)Nc2ccccc2)c1`, the survivor count (T/C endpoint: mean survival time, dose: 400.0 mg/kg/injection, schedule: Q01DX009 (ip), vehicle: saline sonified) was 3 of 6.

As to `C1O[C@@H]1[C@H]1CO1`, the survivor count reads like this: under setting [4], 0 of 6; under setting [6], 0 of 6; under setting [7], 0 of 6.

For the compound `CCOC(=O)NC(C)(C)CN(C(=O)OCC)C(C)(C)CO`, the survivor count (T/C endpoint: mean survival time, dose: 200.0 mg/kg/injection, schedule: Q01DX009 (ip), vehicle: saline) was 6 of 6.

`CN1CC=C(N2CCOCC2)CC1`: the survivor count is given as 6 of 6 (T/C endpoint: mean survival time, dose: 200.0 mg/kg/injection, schedule: Q04DX003 (ip), vehicle: saline) and 3 of 6 under setting [3].

For `CC(=O)Oc1cccc2c1C(=O)c1c(OC(C)=O)cccc1C2=O`, the survivor count (T/C endpoint: mean survival time, dose: 400.0 mg/kg/injection, schedule: Q01DX009 (ip), vehicle: water) is 6 of 6.

Regarding `Cc1c2cnccc2c(C)c2c1c1ccccc1n2CCNCc1ccccc1`, the survivor count under setting [11] is recorded as 6 of 6.

In the case of `C=C(C)C1(Cc2ccccc2)C(=O)NC(=S)NC1=O`, the survivor count (T/C endpoint: mean survival time, dose: 40.0 mg/kg/injection, schedule: Q01DX001 (ip), vehicle: saline) was 0 of 6 and the survivor count (T/C endpoint: mean survival time, dose: 80.0 mg/kg/injection, schedule: Q01DX001 (ip), vehicle: saline) is listed as 0 of 6.

`Cc1noc(N)c1N`: the T/C is 118, 123, 124, 125 % of control (T/C endpoint: median survival time, dose: 200.0 mg/kg/injection, schedule: Q01DX009 (ip), vehicle: water); 128 % of control (T/C endpoint: median survival time, dose: 300.0 mg/kg/injection, schedule: Q01DX009 (ip), vehicle: water); 126, 133, 142, 143 % of control (T/C endpoint: median survival time, dose: 400.0 mg/kg/injection, schedule: Q01DX009 (ip), vehicle: water); 146 % of control (T/C endpoint: median survival time, dose: 600.0 mg/kg/injection, schedule: Q01DX009 (ip), vehicle: water); 134, 148 [5 of 6 alive], 150, 152 % of control [5 of 6 alive] (T/C endpoint: median survival time, dose: 800.0 mg/kg/injection, schedule: Q01DX009 (ip), vehicle: water). Moreover, the survivor count (T/C endpoint: median survival time, dose: 1200.0 mg/kg/injection, schedule: Q01DX009 (ip), vehicle: water) is 0 of 10, 1 of 6, 3 of 6; the survivor count (T/C endpoint: median survival time, dose: 1600.0 mg/kg/injection, schedule: Q01DX009 (ip), vehicle: water) is 0 of 6; the survivor count (T/C endpoint: median survival time, dose: 3200.0 mg/kg/injection, schedule: Q01DX009 (ip), vehicle: water) is reported as 0 of 6.

With `O=C(COc1ccc(F)cc1)OCCOC(=O)COc1ccc(F)cc1`, for the setting “T/C endpoint: mean survival time, dose: 400.0 mg/kg/injection, schedule: Q04DX002 (ip), vehicle: saline with Tween-80”, the survivor count is listed as 3 of 3.

`CCCCCOC(=O)Nc1cccc(O)c1`: under setting [11], the survivor count is listed as 3 of 6.

Consider `S=c1nn[nH]n1-c1ccccc1`, for which the survivor count (T/C endpoint: mean survival time, dose: 400.0 mg/kg/injection, schedule: Q01DX009 (ip), vehicle: saline) is given as 0 of 6.
